Measurements taken from article PMC9396412.
These are yes or no findings as the source states them, for the method shown. In cells and extracts the contact can be indirect. Some results given as binding are weak or reduced against the parent protein; the word gives no strength. For part of these data: Sequences can lack the tags named with a protein.

Amino acid sequences for entries named in this document (tags omitted). Residues count along the entry.
UniProt P37023, residues 22-503: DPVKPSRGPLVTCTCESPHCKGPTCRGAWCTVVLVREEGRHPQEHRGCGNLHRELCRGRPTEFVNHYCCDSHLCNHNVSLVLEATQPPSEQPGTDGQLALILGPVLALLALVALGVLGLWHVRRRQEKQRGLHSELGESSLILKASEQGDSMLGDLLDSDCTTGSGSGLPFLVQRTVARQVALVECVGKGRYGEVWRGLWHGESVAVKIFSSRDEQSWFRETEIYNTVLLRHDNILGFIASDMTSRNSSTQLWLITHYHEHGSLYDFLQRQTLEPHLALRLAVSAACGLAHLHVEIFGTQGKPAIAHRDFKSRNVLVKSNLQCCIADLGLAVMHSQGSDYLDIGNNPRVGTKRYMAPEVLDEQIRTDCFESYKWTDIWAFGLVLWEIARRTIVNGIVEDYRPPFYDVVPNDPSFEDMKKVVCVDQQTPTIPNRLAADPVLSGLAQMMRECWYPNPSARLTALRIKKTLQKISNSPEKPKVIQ
UniProt P06213, residues 28-1382: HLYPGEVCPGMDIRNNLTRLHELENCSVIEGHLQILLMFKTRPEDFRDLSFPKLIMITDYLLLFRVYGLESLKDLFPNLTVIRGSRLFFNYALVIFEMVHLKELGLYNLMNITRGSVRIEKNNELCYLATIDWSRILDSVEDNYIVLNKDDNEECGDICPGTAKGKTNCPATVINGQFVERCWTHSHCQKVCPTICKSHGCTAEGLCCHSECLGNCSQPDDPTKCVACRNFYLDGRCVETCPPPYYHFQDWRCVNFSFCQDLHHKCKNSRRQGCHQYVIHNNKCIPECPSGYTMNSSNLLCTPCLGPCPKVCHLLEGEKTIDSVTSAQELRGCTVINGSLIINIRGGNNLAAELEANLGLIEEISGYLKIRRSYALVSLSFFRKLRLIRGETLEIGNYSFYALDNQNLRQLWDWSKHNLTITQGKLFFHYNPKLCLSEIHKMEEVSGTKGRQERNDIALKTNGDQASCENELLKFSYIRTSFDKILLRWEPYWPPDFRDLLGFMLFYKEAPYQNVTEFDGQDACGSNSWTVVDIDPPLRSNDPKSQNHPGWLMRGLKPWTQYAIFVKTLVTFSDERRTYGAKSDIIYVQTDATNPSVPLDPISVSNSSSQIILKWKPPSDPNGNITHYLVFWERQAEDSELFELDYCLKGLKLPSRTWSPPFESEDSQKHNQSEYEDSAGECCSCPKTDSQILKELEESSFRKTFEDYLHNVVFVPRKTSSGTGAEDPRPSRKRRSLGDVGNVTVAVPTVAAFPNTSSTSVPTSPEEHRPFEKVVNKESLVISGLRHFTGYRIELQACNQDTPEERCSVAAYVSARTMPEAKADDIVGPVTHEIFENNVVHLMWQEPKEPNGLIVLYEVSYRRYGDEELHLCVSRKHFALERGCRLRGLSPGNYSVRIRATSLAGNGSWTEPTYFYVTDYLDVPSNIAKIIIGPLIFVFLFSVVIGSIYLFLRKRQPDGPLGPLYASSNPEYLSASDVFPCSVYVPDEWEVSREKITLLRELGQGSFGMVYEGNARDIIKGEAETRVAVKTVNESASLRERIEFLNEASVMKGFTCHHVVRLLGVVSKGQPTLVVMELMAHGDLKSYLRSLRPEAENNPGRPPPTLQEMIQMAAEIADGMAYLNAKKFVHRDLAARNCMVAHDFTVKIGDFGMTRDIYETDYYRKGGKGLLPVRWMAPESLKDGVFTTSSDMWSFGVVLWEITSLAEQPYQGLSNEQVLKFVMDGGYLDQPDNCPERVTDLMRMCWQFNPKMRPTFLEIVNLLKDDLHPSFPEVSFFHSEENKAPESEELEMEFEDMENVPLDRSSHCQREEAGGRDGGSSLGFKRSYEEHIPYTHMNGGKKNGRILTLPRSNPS

Tests used:
[1] = target: T1, hemagglutinin (HA)-tagged endoglin (human) (UniProt P17813); assay: co-IP; COS-7 cells overexpressing HA-endoglin and IR; IP with HA antibody (legend: endoglin antibody), blot for IR; lysis buffer 20 mM Hepes pH 7.4, 150 mM NaCl, 5 mM NaF, 1% NP-40; 6 h at 4 °C
T1 sequence: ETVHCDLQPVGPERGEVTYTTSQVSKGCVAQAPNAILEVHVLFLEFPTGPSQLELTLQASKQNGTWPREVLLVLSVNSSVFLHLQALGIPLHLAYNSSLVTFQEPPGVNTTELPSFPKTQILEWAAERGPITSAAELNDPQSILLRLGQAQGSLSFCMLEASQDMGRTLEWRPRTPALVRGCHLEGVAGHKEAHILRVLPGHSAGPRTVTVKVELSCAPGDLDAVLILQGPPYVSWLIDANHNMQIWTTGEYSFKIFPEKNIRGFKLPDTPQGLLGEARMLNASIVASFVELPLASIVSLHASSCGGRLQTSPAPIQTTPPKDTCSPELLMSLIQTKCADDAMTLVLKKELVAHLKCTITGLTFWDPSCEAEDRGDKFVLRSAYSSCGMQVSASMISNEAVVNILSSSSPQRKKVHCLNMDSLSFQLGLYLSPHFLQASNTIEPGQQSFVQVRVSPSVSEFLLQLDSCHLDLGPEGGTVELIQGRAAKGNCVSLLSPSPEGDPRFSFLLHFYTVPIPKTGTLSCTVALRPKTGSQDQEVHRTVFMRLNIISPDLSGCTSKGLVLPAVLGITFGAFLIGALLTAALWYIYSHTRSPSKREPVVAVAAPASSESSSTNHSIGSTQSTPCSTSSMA

Myc-tagged ALK1 = Myc-tagged ALK1 (UniProt P37023); assay: pull-down; Myc-ALK1 from COS-7 cells immobilised on anti-Myc bead column as bait; separately prepared COS-7 lysates with endoglin alone, IR alone, or endoglin and IR; Western blot; only the target purified
[2] = target: T2, endogenous endoglin of mouse embryonic endothelial cells (mouse (endogenous in MEECs)) (UniProt Q63961); assay: co-IP; endogenous proteins in Eng+/+ MEECs (Eng-/- as control), serum starved 6 h, with or without insulin for 15 min; IP of endoglin, blots for IR and ALK1; lysis buffer 20 mM Hepes pH 7.4, 150 mM NaCl, 5 mM NaF, 1% NP-40
T2 sequence: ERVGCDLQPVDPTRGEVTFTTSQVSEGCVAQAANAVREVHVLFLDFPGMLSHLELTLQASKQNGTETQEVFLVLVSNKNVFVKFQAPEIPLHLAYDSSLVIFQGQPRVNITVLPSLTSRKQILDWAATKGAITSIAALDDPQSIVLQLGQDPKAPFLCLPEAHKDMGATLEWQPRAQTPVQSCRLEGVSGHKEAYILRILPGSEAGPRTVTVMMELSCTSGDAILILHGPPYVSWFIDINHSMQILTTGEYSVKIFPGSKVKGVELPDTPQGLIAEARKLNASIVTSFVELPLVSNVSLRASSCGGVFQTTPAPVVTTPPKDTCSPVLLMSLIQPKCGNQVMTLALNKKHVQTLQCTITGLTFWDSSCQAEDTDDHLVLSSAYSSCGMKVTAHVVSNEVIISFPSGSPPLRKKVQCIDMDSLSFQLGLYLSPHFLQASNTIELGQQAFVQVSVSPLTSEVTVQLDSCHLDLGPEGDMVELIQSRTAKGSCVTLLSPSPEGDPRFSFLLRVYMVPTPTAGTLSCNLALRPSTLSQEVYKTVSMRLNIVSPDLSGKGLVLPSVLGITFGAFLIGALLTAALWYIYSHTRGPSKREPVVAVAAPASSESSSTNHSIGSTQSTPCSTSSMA

insulin receptor (IR), overexpressed in COS-7 cells (from UniProt P06213 28-1382)
binding [1]: binds

B1: hemagglutinin (HA)-tagged endoglin (receptor, UniProt P17813 26-658)
chain: ETVHCDLQPVGPERGEVTYTTSQVSKGCVAQAPNAILEVHVLFLEFPTGPSQLELTLQASKQNGTWPREVLLVLSVNSSVFLHLQALGIPLHLAYNSSLVTFQEPPGVNTTELPSFPKTQILEWAAERGPITSAAELNDPQSILLRLGQAQGSLSFCMLEASQDMGRTLEWRPRTPALVRGCHLEGVAGHKEAHILRVLPGHSAGPRTVTVKVELSCAPGDLDAVLILQGPPYVSWLIDANHNMQIWTTGEYSFKIFPEKNIRGFKLPDTPQGLLGEARMLNASIVASFVELPLASIVSLHASSCGGRLQTSPAPIQTTPPKDTCSPELLMSLIQTKCADDAMTLVLKKELVAHLKCTITGLTFWDPSCEAEDRGDKFVLRSAYSSCGMQVSASMISNEAVVNILSSSSPQRKKVHCLNMDSLSFQLGLYLSPHFLQASNTIEPGQQSFVQVRVSPSVSEFLLQLDSCHLDLGPEGGTVELIQGRAAKGNCVSLLSPSPEGDPRFSFLLHFYTVPIPKTGTLSCTVALRPKTGSQDQEVHRTVFMRLNIISPDLSGCTSKGLVLPAVLGITFGAFLIGALLTAALWYIYSHTRSPSKREPVVAVAAPASSESSSTNHSIGSTQSTPCSTSSMA
binding (Myc-tagged ALK1): binds

B2: endogenous ALK1 of mouse embryonic endothelial cells (receptor, UniProt Q61288 23-502)
chain: DLAKPSKLVNCTCESPHCKRPFCQGSWCTVVLVREQGRHPQVYRGCGSLNQELCLGRPTEFLNHHCCYRSFCNHNVSLMLEATQTPSEEPEVDAHLPLILGPVLALPVLVALGALGLWRVRRRQEKQRDLHSDLGESSLILKASEQADSMLGDFLDSDCTTGSGSGLPFLVQRTVARQVALVECVGKGRYGEVWRGSWHGESVAVKIFSSRDEQSWFRETEIYNTVLLRHDNILGFIASDMTSRNSSTQLWLITHYHEHGSLYDFLQRQTLEPQLALRLAVSAACGLAHLHVEIFGTQGKPAIAHRDLKSRNVLVKSNLQCCIADLGLAVMHSQSSDYLDIGNNPRVGTKRYMAPEVLDEHIRTDCFESYKWTDIWAFGLVLWEIARRTIINGIVEDYRPPFYDMVPNDPSFEDMKKVVCVDQQTPTIPNRLAADPVLSGLAQMMRECWYPNPSARLTALRIKKTLQKLSHNPEKPKVIH
binding [2]: binds
